Experiment [1] concerns the target endogenous HRD1 protein (human (endogenous in H460)) (UniProt Q86TM6). The experiment is described as follows: co-IP; endogenous HRD1 precipitated with anti-HRD1 antibody in H460 control, TUSC3 KO or TUSC3-reconstituted TUSC3 KO cells; Western blot for substrates; interactions enhanced in TUSC3 KO, decreased on TUSC3 overexpression. In general terms: Immunoblotting shows a protein as a band on a membrane.

Sequences of proteins named here, by UniProt entry; tags and fusion partners are left off. Residues count along the entry.
UniProt Q86TM6: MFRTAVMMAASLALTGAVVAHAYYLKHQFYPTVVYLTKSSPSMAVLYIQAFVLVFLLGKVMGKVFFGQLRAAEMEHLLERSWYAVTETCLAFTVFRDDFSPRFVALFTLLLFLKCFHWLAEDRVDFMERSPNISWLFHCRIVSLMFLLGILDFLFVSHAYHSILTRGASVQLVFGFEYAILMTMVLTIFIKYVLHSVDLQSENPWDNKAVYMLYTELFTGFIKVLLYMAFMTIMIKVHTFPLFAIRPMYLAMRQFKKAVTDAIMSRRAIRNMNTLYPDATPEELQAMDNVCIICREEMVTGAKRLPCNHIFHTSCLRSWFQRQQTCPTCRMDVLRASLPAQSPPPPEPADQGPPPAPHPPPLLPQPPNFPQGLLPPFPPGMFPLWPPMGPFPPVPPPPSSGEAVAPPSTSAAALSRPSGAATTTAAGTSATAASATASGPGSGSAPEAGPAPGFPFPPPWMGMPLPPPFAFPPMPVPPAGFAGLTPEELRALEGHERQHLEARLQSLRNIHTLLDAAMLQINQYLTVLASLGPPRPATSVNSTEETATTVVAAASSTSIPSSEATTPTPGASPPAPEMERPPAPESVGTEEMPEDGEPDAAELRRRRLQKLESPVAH
UniProt P18850: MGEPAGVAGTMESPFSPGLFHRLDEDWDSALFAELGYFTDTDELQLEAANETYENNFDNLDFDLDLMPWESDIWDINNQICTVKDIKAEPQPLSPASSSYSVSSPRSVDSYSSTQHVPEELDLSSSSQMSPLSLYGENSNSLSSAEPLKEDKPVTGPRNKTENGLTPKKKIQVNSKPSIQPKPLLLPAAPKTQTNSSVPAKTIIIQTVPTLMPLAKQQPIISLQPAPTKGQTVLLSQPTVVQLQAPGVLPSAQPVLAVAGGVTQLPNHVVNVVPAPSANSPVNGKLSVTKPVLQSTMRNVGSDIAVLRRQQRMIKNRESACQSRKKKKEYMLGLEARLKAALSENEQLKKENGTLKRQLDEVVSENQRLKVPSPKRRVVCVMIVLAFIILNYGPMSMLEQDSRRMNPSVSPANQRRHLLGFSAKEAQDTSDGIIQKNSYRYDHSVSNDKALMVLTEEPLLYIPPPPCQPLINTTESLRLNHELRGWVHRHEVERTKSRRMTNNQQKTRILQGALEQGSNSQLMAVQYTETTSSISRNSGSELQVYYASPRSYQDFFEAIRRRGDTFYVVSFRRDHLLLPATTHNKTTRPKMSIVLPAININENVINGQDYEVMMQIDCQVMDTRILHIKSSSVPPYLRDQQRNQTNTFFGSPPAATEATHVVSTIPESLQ
UniProt O75460, residues 19-977: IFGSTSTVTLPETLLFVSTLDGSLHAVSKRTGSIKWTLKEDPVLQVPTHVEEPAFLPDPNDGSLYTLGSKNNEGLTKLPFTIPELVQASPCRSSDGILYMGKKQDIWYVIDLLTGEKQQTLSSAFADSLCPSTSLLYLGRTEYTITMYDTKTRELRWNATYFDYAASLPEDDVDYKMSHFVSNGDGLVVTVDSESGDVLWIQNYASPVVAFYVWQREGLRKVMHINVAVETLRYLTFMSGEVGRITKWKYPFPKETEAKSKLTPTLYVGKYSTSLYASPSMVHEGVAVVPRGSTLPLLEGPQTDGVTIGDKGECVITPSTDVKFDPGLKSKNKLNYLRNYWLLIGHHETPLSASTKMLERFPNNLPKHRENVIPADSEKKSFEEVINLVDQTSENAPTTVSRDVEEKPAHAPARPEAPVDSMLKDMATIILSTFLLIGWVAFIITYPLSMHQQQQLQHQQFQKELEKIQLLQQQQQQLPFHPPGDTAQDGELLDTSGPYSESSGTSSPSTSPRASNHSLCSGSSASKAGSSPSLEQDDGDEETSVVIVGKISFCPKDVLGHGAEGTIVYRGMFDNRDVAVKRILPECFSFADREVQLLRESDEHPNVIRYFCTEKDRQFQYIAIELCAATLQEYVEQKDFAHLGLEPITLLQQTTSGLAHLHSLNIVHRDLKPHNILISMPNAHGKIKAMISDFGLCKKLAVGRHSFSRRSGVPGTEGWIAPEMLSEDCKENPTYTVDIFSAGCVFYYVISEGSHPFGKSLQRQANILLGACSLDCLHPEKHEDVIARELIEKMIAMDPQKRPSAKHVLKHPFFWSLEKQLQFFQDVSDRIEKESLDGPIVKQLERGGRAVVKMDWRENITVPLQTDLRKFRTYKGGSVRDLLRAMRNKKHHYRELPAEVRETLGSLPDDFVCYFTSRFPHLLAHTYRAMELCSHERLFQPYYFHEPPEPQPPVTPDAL

A further experiment addresses HRD1-Flag (Synoviolin) (UniProt Q86TM6). Put plainly: co-IP; pcDNA-TUSC3-V5-His or its mutants (TUSC3-CCSS, Del-TUSC3) co-transfected with pCMV6-HRD1-Flag in HEK293 cells; IP and inverse IP with Western blot.

Results are given in words; binding and its absence hold for the method and conditions named. In cells and extracts the contact can be indirect. Some binding calls cover weakened binding; strength is not graded here. For part of these data: Where a sequence is shown, tags or fusion partners need not be part of it.

As for “ATF6α (endogenous, H460) (from UniProt P18850 1-670)”, the binding entry in experiment [1] is reported as “no binding”.

Turning to “IRE1α (endogenous, H460) (from UniProt O75460 19-977)”, the binding result in experiment [1] is “binds”.

B1: TUSC3-V5-His (wild type Tumor Suppressor Candidate 3) (protein, UniProt Q13454 42-348)
chain: QKKKENLLAEKVEQLMEWSSRRSIFRMNGDKFRKFIKAPPRNYSMIVMFTALQPQRQCSVCRQANEEYQILANSWRYSSAFCNKLFFSMVDYDEGTDVFQQLNMNSAPTFMHFPPKGRPKRADTFDLQRIGFAAEQLAKWIADRTDVHIRVFRPPNYSGTIALALLVSLVGGLLYLRRNNLEFIYNKTGWAMVSLCIVFAMTSGQMWNHIRGPPYAHKNPHNGQVSYIHGSSQAQFVAESHIILVLNAAITMGMVLLNEAATSKGDVGKRRIICLVGLGLVVFFFSFLLSIFRSKYHGYPYSDLDFE
For the molecule B1, the binding result with HRD1-Flag (Synoviolin) is “binds”.
